Measured values: article PMC5518105, “Identification and characterization of the antiplasmodial activity of Hsp90 inhibitors” (Malaria Journal, 2017)
Read-outs that look alike come from different tables or passages of the source.

Columns and labels:
P. falciparum Hsp90 = format: binding, Plasmodium falciparum
Experimental: Full-length human recombinant HSP90α was purchased (Cayman Chemicals, MI), while the malaria recombinant parasite proteins were generated according to the following protocol. […] Growth at 37 °C continued until the OD600 reached ~1.0, whereupon the temperature was lowered to 18 °C and protein expression was induced by the addition of 1 mM isopropyl β-D-thiogalactopyranoside (IPTG). Overnight post-induction cells were collected by centrifugation and resuspended in binding buffer [50 mM Hepes pH 7.5, 500 mM NaCl, 1 mM benzamidine, and 1 mM phenylmethanesulfonyl fluoride (PMSF)]. The cells were lysed by adding chemical lysis buffer (2% CHAPS, 0.1 mg/mL lysozyme and 0.5 U/mL benzonase), the lysate was clarified by centrifugation. The supernatant was loaded on to a nickel-nitrilotriacetic acid column pre-equilibrated with binding buffer (50 mM Hepes pH 7.5, 500 mM NaCl). […] The final protein products and samples for different steps in the purification procedures were evaluated in SDS-Page gels.
SPR measurements were performed on Biacore T200 instrument (GE Healthcare) at 25 °C. […] The Biacore responses recorded during the 30 s of the injection were used to estimate the association constant (k on) and the 300 s after the injection were used to estimate the dissociation constant (k off). […]

[1] = tested on: Primary normal human lung fibroblasts (NHLFs); test: Drug cytotoxicity assay (MTT); conditions: NHLF IC50 vs P. falciparum IC50

For `CC(C)NCCCn1c(Sc2cc(Cl)cc(Cl)c2)nc2c(N)ncnc21` [PUWS13], which “affinity difference, parasite chaperone vs human counterpart” value (P. falciparum Hsp90; lower for the parasite chaperone) is on record?
The value was “over 1000 fold”.

Which “affinity difference, parasite chaperone vs human counterpart” value (P. falciparum Hsp90) does the source give for `CC(C)NCCCn1c(Sc2cc3c(cc2I)OCO3)nc2c(N)ncnc21` [PUH71] here?
Its value is “over 1000 fold”.

`CO[C@H]1/C=C\C=C(/C)C(=O)NC2=CC(=O)C(NCCN(C)C)=C(C[C@@H](C)C[C@H](OC)[C@H](O)[C@@H](C)/C=C(\C)[C@@H]1OC(N)=O)C2=O` [17-DMAG, 17-(dimethylaminoethylamino)-17-demethoxygeldanamycin] was tested. Which “difference between the parasite and host IC50s” value [1] did it give?
Its value is over 70 fold.
